Results on 14 compounds are retold here after PubChem BioAssay AID248 (DTP/NCI, 2004).

In this assay the test system is L1210 leukemia ip in BDF1 mice, survival T/C. Briefly: NCI In Vivo Anticancer Drug Screen. Data for tumor model L1210 Leukemia (intraperitoneal) in B6D2F1 (BDF1) mice. Particulars: T/C endpoint: mean survival time, higher T/C = longer survival.
[1] abbreviates: dose: 5.0 mg/kg/injection, schedule: Q01DX001 (ip), vehicle: saline.
[2] abbreviates: dose: 10.0 mg/kg/injection, schedule: Q01DX001 (ip), vehicle: saline.
[3] abbreviates: dose: 20.0 mg/kg/injection, schedule: Q01DX001 (ip), vehicle: saline.
Setting [4] is: dose: 40.0 mg/kg/injection, schedule: Q01DX001 (ip), vehicle: saline.
Where [5] appears, read: dose: 80.0 mg/kg/injection, schedule: Q01DX001 (ip), vehicle: saline.
[6] abbreviates: dose: 100.0 mg/kg/injection, schedule: Q01DX001 (ip), vehicle: saline.
[7] abbreviates: dose: 200.0 mg/kg/injection, schedule: Q01DX001 (ip), vehicle: saline.
[8] abbreviates: dose: 400.0 mg/kg/injection, schedule: Q01DX001 (ip), vehicle: saline.
Setting [9] is: dose: 100.0 mg/kg/injection, schedule: Q04DX003 (ip), vehicle: saline with Tween-80.
Where [10] appears, read: dose: 200.0 mg/kg/injection, schedule: Q04DX003 (ip), vehicle: saline with Tween-80.
Where [11] appears, read: dose: 400.0 mg/kg/injection, schedule: Q04DX003 (ip), vehicle: saline with Tween-80.
[12] abbreviates: dose: 50.0 mg/kg/injection, schedule: Q04DX003 (ip), vehicle: saline.
Setting [13] is: dose: 100.0 mg/kg/injection, schedule: Q04DX003 (ip), vehicle: saline.
Where [14] appears, read: dose: 200.0 mg/kg/injection, schedule: Q04DX003 (ip), vehicle: saline.

The list shows only some results of the screen, not a fair sample: it gathers some chemical classes. Not every dose and run of a compound is shown. T/C gives the treated animals as a percentage of the vehicle group. Some doses have a count of surviving animals in place of a T/C: the source files T/C as zero there, which appears to mark a toxic dose or a test without result, not a measured value. Some survivor counts are full or nearly so, which does not show that the dose was tolerated: survival well below the control is almost never listed, so the zero probably covers shortened survival too. Survivors were counted at the toxicity check, usually on the fifth day, unless a day is given; later deaths do not show. Schedules are NCI's codes, read here as Q, the interval in days (D) or hours (H), X, the number of doses. Where survival is the endpoint, the PubChem record calls one and a half times the control and up active, and a quarter to a half above the control has no call in these data; cut-offs in other NCI protocols can differ. Some schedules carry Z or #; the key to these is not given. Some T/C values are followed by the survivors on the day toxicity was checked, most often the fifth; without a count or a note in brackets, all were alive then. Some doses were run more than once; the results are listed from low to high. Some entries show no survivor count and are marked so; the dose need not have been tolerated.

Regarding `Cc1ccc(NC(=O)NP(=O)(Nc2ccccc2)Nc2ccccc2)cc1Cl`, the T/C reads like this: (dose: 50.0 mg/kg/injection, schedule: Q01DX001 (ip), vehicle: alcohol) 102 % of control; (dose: 100.0 mg/kg/injection, schedule: Q01DX001 (ip), vehicle: alcohol) 96 % of control; (dose: 200.0 mg/kg/injection, schedule: Q01DX001 (ip), vehicle: alcohol) 96 % of control; (dose: 400.0 mg/kg/injection, schedule: Q01DX001 (ip), vehicle: alcohol) 96 % of control.

With `COc1ccc(C=C(C#N)C#N)cc1`, the T/C under setting [1] is 97 % of control, the T/C under setting [2] was 103 % of control, the T/C under setting [3] is 100 % of control and the T/C under setting [4] was 94 % of control. In addition, the survivor count was 2 of 4 under setting [5], 0 of 4 under setting [6], 0 of 4 under setting [7] and 0 of 4 under setting [8].

On to `CN(C)P(N)(Cl)(N(C)C)N(C)C`, for which the T/C under setting [6] was 95 % of control. The survivor count is 1 of 6 under setting [7] and 0 of 6 under setting [8].

Take `[N-]=[N+]=NC1=CC(=O)C(N=[N+]=[N-])=CC1=O`: the T/C under setting [1] was 100 % of control and the T/C under setting [2] was 97 % of control [4 of 6 alive]. Also, the survivor count is given as 0 of 6 under setting [3]; 0 of 6 under setting [4]; 0 of 6 under setting [5]; 0 of 4 under setting [6]; 0 of 4 under setting [7]; 0 of 4 under setting [8].

With `CC(C)(C)NCCSP(=S)(c1ccccc1)c1ccccc1`, the T/C under setting [9] was 100 % of control, the T/C under setting [10] was 96 % of control and the T/C under setting [11] is 86 % of control.

Take `CCOC(=O)COc1ccc(N(CCCl)CCCl)cc1`: the T/C runs as follows: (dose: 1.5 mg/kg/injection, schedule: Q01DX Z (ip), vehicle: methylcellulose (MC)) 111 % of control; (dose: 2.3 mg/kg/injection, schedule: Q01DX Z (ip), vehicle: methylcellulose (MC)) 111 % of control; (dose: 3.5 mg/kg/injection, schedule: Q01DX Z (ip), vehicle: methylcellulose (MC)) 101, 113, 137, 154 % of control; (dose: 5.0 mg/kg/injection, schedule: Q01DX Z (ip), vehicle: methylcellulose (MC)) 103, 119, 127, 142 % of control; (dose: 8.0 mg/kg/injection, schedule: Q01DX Z (ip), vehicle: methylcellulose (MC)) 129, 130, 140, 181 % of control; (dose: 12.0 mg/kg/injection, schedule: Q01DX Z (ip), vehicle: methylcellulose (MC)) 120, 127 [5 of 6 alive], 151, 165 % of control. Moreover, the T/C is 125 % of control (dose: 18.0 mg/kg/injection, schedule: Q01DX Z (ip), vehicle: methylcellulose (MC)) and 96 % of control (dose: 27.0 mg/kg/injection, schedule: Q01DX Z (ip), vehicle: methylcellulose (MC)).

With `CCOC(=O)NP(=O)(NC(=O)NOC)NC(=O)OCC`, the T/C by setting is: under setting [6], 100 % of control; under setting [7], 97 % of control; under setting [8], 103 % of control.

As for `O=[N+]([O-])c1cc([N+](=O)[O-])c(Cl)c([N+](=O)[O-])c1`, the T/C (dose: 50.0 mg/kg/injection, schedule: Q01DX001 (ip), vehicle: carboxymethylcellulose (CMC)) is 93 % of control [survivor count not shown].

Regarding `CCOP(=O)(NCCO)N(CCCl)CCCl` (stereo unspecified), the T/C (dose: 50.0 mg/kg/injection, schedule: Q01DX Z (ip), vehicle: saline) is 88 % of control; the T/C (dose: 100.0 mg/kg/injection, schedule: Q01DX Z (ip), vehicle: saline) was 93 % of control; the T/C (dose: 200.0 mg/kg/injection, schedule: Q01DX Z (ip), vehicle: saline) was 96 % of control [5 of 6 alive]; the T/C (dose: 400.0 mg/kg/injection, schedule: Q01DX Z (ip), vehicle: saline) is 100 % of control.

In the case of `CP(=O)(Oc1ccc([N+](=O)[O-])cc1)Oc1ccc([N+](=O)[O-])cc1`, the T/C (dose: 25.0 mg/kg/injection, schedule: Q01DX009 (ip), vehicle: Klucel (hydroxypropylcellulose) (HPC)) is 96 % of control [survivor count not shown]; the T/C (dose: 50.0 mg/kg/injection, schedule: Q01DX009 (ip), vehicle: Klucel (hydroxypropylcellulose) (HPC)) was 102 % of control [survivor count not shown]; the T/C (dose: 50.0 mg/kg/injection, schedule: Q04DX003 (ip), vehicle: Klucel (hydroxypropylcellulose) (HPC)) is 103 % of control [survivor count not shown]; the T/C (dose: 100.0 mg/kg/injection, schedule: Q04DX003 (ip), vehicle: Klucel (hydroxypropylcellulose) (HPC)) is 92 [survivor count not shown] and 96 % of control [survivor count not shown]; the T/C (dose: 200.0 mg/kg/injection, schedule: Q04DX003 (ip), vehicle: Klucel (hydroxypropylcellulose) (HPC)) is 95 [survivor count not shown] and 100 % of control [survivor count not shown].

Regarding `Cc1ccc(OP(=S)(Cl)Cl)cc1`, the T/C under setting [9] is 103 % of control, the T/C under setting [10] is 103 % of control and the T/C under setting [11] was 103 % of control.

As for `CN[N+](=O)[O-]`, the T/C is 103 % of control [survivor count not shown] under setting [12]; 88 % of control [survivor count not shown] under setting [6]; 103 % of control [survivor count not shown] under setting [13]; 100 % of control [survivor count not shown] under setting [7]; 111 % of control [survivor count not shown] under setting [14]; 95 % of control [survivor count not shown] under setting [8].

Regarding `O=C(SCCCl)c1ccccc1`, the T/C by setting is: (dose: 5.0 mg/kg/injection, schedule: Q01DX Z (ip), vehicle: saline) 94 % of control; (dose: 10.0 mg/kg/injection, schedule: Q01DX Z (ip), vehicle: saline) 89 % of control; (dose: 20.0 mg/kg/injection, schedule: Q01DX Z (ip), vehicle: saline) 101 % of control; (dose: 40.0 mg/kg/injection, schedule: Q01DX010 (ip), vehicle: saline) 90 % of control; (dose: 40.0 mg/kg/injection, schedule: Q01DX Z (ip), vehicle: saline) 92 % of control; (dose: 80.0 mg/kg/injection, schedule: Q01DX010 (ip), vehicle: saline) 90 % of control. Where the note is “dose: 320.0 mg/kg/injection, schedule: Q01DX010 (ip), vehicle: saline”, the T/C is 98 % of control. Further, the survivor count (dose: 160.0 mg/kg/injection, schedule: Q01DX010 (ip), vehicle: saline) is 6 of 6.

Take `CC(C)c1nc(Nc2ccccc2)n(P(=O)(N(C)C)N(C)C)n1`: the T/C (dose: 1.5 mg/kg/injection, schedule: Q01DX009 (ip), vehicle: saline) was 98 % of control; the T/C (dose: 1.5 mg/kg/injection, schedule: Q04DX003 (ip), vehicle: saline) is 101 % of control; the T/C (dose: 3.0 mg/kg/injection, schedule: Q01DX009 (ip), vehicle: saline) was 100 % of control; the T/C (dose: 3.0 mg/kg/injection, schedule: Q04DX003 (ip), vehicle: saline) was 106 % of control; the T/C (dose: 6.0 mg/kg/injection, schedule: Q01DX009 (ip), vehicle: saline) was 109 % of control; the T/C (dose: 6.0 mg/kg/injection, schedule: Q04DX003 (ip), vehicle: saline) is 103 % of control. Also, the survivor count (dose: 12.5 mg/kg/injection, schedule: Q04DX003 (ip), vehicle: saline) is on record as 1 of 6; the survivor count (dose: 25.0 mg/kg/injection, schedule: Q04DX003 (ip), vehicle: saline) was 0 of 6; the survivor count under setting [12] was 0 of 6; the survivor count under setting [13] was 0 of 6; the survivor count under setting [14] is listed as 0 of 6; the survivor count (dose: 400.0 mg/kg/injection, schedule: Q04DX003 (ip), vehicle: saline) is on record as 0 of 6.
